This note sets out measurements from the supplement of paper PMC12067093, “Discovery and optimisation of a covalent ligand for TRIM25 and its application to targeted protein ubiquitination” (Chemical Science, 2025).

Amino acid sequences for entries named in this document (tags omitted). A change or cut given only in a name is not applied to a line headed by its entry.
UniProt P19838: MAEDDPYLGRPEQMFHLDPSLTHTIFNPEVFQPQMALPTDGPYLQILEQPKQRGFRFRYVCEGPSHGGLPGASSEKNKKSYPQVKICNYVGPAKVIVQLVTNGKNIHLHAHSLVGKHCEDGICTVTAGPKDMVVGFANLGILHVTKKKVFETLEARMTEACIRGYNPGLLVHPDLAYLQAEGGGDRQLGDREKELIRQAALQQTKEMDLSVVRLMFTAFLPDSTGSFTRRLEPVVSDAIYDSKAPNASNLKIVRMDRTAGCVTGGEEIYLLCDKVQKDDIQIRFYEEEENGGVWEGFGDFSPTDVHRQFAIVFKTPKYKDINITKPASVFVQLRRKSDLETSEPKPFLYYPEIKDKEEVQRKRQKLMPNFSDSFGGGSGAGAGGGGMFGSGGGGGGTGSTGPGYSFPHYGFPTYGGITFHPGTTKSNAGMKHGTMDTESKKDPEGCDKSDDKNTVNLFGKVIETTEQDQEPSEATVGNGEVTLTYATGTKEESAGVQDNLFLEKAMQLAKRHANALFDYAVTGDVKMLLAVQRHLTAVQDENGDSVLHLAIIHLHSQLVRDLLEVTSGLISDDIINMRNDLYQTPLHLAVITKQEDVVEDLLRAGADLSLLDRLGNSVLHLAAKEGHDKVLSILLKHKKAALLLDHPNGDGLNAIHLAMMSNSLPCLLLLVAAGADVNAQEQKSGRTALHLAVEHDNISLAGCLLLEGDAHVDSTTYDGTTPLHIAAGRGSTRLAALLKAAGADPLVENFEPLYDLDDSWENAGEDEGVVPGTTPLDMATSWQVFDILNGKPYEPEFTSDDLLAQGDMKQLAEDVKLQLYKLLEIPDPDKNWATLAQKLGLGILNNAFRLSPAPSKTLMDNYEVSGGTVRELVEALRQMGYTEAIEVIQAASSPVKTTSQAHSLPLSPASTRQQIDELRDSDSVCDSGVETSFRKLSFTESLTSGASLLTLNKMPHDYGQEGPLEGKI
UniProt Q8WX92, whole entry, looked up: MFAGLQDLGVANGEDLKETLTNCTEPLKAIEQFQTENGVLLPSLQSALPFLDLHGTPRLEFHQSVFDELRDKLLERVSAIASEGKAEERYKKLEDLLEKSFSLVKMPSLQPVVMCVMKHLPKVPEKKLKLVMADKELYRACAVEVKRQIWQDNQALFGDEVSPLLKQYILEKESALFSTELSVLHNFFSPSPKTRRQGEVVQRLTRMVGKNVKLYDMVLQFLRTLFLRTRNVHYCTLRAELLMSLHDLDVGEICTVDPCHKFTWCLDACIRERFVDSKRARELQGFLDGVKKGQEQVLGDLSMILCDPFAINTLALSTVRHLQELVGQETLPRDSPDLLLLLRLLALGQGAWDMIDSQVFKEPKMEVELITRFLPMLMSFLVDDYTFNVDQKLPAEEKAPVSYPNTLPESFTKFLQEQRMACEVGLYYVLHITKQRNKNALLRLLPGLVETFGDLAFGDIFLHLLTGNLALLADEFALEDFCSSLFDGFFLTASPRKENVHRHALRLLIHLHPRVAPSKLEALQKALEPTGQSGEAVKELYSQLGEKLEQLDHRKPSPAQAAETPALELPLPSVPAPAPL
UniProt O00217, whole entry: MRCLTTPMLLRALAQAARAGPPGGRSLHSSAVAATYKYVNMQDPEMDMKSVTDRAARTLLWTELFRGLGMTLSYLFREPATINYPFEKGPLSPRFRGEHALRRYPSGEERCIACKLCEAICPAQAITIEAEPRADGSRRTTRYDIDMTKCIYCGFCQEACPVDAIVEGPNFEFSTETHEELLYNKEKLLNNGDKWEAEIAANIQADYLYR
UniProt P19878: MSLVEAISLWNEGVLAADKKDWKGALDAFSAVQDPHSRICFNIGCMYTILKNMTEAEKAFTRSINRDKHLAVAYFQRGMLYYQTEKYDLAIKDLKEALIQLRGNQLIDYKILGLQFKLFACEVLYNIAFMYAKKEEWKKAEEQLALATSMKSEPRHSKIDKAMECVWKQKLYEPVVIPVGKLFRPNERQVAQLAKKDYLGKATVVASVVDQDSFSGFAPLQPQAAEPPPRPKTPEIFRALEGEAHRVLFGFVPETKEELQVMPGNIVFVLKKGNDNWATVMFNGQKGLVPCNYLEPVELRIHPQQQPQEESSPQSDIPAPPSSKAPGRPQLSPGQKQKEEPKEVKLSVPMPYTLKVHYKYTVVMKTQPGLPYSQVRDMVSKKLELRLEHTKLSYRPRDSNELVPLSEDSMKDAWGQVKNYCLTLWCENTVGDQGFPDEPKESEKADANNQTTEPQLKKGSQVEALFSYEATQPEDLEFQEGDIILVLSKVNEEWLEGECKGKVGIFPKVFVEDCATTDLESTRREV
UniProt Q8TD19: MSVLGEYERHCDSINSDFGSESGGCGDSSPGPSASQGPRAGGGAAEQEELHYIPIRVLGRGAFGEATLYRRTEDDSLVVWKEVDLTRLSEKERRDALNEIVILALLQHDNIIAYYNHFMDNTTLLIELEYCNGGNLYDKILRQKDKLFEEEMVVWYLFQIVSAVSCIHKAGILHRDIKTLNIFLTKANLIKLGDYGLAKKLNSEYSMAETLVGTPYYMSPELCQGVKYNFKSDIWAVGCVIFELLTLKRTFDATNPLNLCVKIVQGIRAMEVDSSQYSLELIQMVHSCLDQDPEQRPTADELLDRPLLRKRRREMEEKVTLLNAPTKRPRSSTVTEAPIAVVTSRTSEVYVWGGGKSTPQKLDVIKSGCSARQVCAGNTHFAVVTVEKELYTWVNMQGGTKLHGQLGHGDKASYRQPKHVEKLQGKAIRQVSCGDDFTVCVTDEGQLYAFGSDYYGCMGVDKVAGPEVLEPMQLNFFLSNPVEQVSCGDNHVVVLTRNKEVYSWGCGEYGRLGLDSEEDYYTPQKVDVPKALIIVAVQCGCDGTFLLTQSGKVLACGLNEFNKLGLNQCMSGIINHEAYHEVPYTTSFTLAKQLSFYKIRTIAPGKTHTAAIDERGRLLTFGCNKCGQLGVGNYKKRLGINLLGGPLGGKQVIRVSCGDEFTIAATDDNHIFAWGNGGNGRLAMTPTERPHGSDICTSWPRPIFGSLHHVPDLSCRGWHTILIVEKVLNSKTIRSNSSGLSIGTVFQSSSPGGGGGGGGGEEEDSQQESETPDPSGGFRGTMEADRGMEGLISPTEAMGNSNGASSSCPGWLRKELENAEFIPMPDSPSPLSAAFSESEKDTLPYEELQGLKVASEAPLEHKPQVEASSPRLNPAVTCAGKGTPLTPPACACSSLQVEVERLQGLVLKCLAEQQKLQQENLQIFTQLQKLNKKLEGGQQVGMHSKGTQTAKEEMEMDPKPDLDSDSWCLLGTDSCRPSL
UniProt Q9Y618, whole entry, looked up: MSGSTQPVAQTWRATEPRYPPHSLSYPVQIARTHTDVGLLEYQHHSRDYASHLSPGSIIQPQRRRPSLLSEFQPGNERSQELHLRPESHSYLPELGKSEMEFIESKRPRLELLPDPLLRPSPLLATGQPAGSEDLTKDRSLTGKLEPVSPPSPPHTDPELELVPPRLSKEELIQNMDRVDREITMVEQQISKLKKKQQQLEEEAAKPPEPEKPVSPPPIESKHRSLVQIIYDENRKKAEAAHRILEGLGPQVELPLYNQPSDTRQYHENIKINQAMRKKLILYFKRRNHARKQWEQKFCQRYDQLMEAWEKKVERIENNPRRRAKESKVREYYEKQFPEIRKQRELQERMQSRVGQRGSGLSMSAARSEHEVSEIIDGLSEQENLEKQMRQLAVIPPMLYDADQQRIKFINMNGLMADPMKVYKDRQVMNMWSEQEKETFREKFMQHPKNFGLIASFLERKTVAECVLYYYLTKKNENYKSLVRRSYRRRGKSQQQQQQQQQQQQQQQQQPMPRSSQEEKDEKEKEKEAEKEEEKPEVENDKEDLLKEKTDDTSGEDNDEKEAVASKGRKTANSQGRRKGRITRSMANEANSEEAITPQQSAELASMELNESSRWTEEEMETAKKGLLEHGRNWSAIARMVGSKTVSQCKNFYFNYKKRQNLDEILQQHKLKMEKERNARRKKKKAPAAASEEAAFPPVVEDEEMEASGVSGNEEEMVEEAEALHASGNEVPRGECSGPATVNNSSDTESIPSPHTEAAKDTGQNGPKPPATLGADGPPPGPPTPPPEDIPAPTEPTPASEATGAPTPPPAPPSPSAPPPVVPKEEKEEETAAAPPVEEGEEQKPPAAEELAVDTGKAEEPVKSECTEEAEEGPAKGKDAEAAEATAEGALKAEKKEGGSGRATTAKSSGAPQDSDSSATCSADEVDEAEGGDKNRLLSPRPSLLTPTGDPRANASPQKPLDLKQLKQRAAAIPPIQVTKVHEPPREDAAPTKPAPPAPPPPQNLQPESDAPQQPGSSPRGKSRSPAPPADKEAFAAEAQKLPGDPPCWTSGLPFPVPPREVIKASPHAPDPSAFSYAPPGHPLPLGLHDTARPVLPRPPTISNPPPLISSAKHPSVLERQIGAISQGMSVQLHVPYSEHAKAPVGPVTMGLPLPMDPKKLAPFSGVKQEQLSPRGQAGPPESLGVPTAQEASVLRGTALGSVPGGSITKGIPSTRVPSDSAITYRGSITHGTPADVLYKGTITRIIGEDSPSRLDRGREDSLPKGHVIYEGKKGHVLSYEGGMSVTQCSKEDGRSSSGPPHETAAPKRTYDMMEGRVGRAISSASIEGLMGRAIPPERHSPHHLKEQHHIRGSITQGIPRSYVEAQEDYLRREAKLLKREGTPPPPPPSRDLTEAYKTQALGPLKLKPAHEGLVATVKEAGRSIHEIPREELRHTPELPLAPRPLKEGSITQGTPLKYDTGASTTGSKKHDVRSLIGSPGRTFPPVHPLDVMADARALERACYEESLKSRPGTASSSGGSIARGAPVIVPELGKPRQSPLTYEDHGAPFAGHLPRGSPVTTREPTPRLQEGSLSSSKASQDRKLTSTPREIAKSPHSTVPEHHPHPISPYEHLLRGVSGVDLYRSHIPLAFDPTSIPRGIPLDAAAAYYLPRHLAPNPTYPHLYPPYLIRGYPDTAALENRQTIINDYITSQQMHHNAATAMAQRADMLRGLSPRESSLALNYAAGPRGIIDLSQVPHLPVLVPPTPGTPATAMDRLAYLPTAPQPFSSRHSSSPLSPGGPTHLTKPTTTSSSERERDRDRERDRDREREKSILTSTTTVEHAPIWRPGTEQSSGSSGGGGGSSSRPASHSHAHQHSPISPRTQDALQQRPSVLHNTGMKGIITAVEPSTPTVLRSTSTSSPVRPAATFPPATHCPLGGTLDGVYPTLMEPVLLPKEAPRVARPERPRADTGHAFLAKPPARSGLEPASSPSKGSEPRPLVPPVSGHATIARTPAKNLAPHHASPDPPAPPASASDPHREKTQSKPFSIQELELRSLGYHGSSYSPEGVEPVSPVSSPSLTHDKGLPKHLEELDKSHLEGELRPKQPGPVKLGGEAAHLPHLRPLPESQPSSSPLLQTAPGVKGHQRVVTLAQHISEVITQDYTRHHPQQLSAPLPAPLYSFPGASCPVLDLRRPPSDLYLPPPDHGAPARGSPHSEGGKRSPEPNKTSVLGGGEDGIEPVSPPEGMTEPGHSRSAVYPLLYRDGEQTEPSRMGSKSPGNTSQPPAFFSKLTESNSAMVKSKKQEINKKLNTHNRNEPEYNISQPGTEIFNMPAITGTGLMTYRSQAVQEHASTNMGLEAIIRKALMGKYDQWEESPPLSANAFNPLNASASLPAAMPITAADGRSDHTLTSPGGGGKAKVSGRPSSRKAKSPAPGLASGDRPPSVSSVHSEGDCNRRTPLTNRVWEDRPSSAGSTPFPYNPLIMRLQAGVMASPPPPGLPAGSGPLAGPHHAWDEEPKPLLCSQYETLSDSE
UniProt Q9H9Q4: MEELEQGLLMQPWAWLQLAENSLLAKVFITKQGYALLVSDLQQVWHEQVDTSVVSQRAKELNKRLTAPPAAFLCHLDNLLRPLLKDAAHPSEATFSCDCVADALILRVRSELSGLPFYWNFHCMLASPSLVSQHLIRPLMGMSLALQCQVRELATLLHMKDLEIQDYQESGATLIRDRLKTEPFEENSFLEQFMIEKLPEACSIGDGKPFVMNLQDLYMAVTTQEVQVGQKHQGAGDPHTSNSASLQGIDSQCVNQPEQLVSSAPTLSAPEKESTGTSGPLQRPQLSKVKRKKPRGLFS
UniProt Q15653: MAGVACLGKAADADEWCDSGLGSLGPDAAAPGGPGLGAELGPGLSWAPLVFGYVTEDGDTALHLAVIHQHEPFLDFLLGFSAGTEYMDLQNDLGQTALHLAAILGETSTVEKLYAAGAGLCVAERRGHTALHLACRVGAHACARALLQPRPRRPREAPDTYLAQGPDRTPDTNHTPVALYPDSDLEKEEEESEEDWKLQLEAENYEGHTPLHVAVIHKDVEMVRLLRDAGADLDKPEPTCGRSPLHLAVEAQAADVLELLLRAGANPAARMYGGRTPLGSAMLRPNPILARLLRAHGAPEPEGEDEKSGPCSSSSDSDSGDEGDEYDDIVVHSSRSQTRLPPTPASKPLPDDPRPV

Compound in this experiment: CC1Cc2ccccc2N1C(=O)C1CCCN(C1)C(=O)CCl (mixture of isomers) [TRIM25 ligand 11 (diastereomer mixture)]
Nature of the experiment: probe-labelled cysteine peptide fold change vs DMSO (competition) (log2 fold change); higher = less target engagement (more negative = stronger competition). Particulars: THP-1, incubation time: 4 h.

This is one part of the list.
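Note: competitive chemoproteomic profiling in live THP-1 cells with an iodoacetamide desthiobiotin (IA-DTB) probe, comparing probe-labelled peptide intensities in compound-treated cells against DMSO-treated controls.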

With “NF1_P21359_1486_FFLDIASDCPTSDAVNHSLSFISDGNVLALHR (UniProt P21359)”, the “probe-labelled cysteine peptide fold change” value by setting is: (10 µM) 0.157; (50 µM) 0.0357.

On to “NFKB1_P19838_61_YVCEGPSHGGLPGASSEK (UniProt P19838)”, for which the “probe-labelled cysteine peptide fold change” value by setting is: (10 µM) -0.0412; (50 µM) -0.198.

Take “NELFB_Q8WX92_235_NVHYCTLR (UniProt Q8WX92)”: the “probe-labelled cysteine peptide fold change” value reads like this: (10 µM) 0.148; (50 µM) 0.179.

For the target “NDUFS8_O00217_121_LCEAICPAQAITIEAEPR (UniProt O00217)”, the “probe-labelled cysteine peptide fold change” value (10 µM) was found to be 0.073 and the “probe-labelled cysteine peptide fold change” value (50 µM) amounted to 0.261.

Turning to “NFS1_Q9Y697_308_SGTVPTPLVVGLGAACEVAQQEMEYDHKR (UniProt Q9Y697)”, the “probe-labelled cysteine peptide fold change” value (10 µM) was -0.0111 and the “probe-labelled cysteine peptide fold change” value (50 µM) was -0.089.

Regarding “NF1_P21359_434_IDAVYCHSVELR (UniProt P21359)”, the “probe-labelled cysteine peptide fold change” value runs as follows: (10 µM) -0.102; (50 µM) -0.0177.

For the target “NCF2_P19878_291_GLVPCNYLEPVELR (UniProt P19878)”, the “probe-labelled cysteine peptide fold change” value was -0.17 (10 µM) and -0.137 (50 µM).

Take NFIB_O00712_120_RIDCLR (UniProt O00712): the “probe-labelled cysteine peptide fold change” value is, setting by setting: (10 µM) -0.0808; (50 µM) -0.232.

On to “NEK9_Q8TD19_569_LGLNQCMSGIINHEAYHEVPYTTSFTLAK (UniProt Q8TD19)”, for which the “probe-labelled cysteine peptide fold change” value is 0.0603 (10 µM) and -0.0344 (50 µM).

As for “NFAT5_O94916_347_VKPHGFYQACR (UniProt O94916)”, the “probe-labelled cysteine peptide fold change” value runs as follows: (10 µM) -0.0497; (50 µM) -0.0186.

As to “NELFB_Q8WX92_141_ACAVEVK (UniProt Q8WX92)”, the “probe-labelled cysteine peptide fold change” value by setting is: (10 µM) -0.0244; (50 µM) 0.159.

As to “NCOR2_Q9Y618_866_SECTEEAEEGPAK (UniProt Q9Y618)”, the “probe-labelled cysteine peptide fold change” value was -0.0262 (10 µM) and 0.198 (50 µM).

With “NHEJ1_Q9H9Q4_97_DAAHPSEATFSCDCVADALILR (UniProt Q9H9Q4)”, the “probe-labelled cysteine peptide fold change” value is, setting by setting: (10 µM) -0.0671; (50 µM) -0.126.

As to “NFKBIB_Q15653_240_DAGADLDKPEPTCGR (UniProt Q15653)”, the “probe-labelled cysteine peptide fold change” value (10 µM) is -0.0754 and the “probe-labelled cysteine peptide fold change” value (50 µM) is -0.183.
